From patent publication US20250283871A1, “COMPOSITIONS AND METHODS FOR MODULATING THE INTERACTION BETWEEN SS18-SSX FUSION ONCOPROTEIN AND NUCLEOSOMES” (Dana-Farber Cancer Institute, Inc., priority 2020, published 2025)

B1: IMMT (protein, UniProt Q16891 34-758, looked up)
MICOS complex subunit MIC60: STSGSSGLTTGKIAGAGLLFVGGGIGGTILYAKWDSHFRESVEKTIPYSDKLFEMVLGPAAYNVPLPKKSIQSGPLKISSVSEVMKESKQPASQLQKQKGDTPASATAPTEAAQIISAAGDTLSVPAPAVQPEESLKTDHPEIGEGKPTPALSEEASSSSIRERPPEEVAARLAQQEKQEQVKIESLAKSLEDALRQTASVTLQAIAAQNAAVQAVNAHSNILKAAMDNSEIAGEKKSAQWRTVEGALKERRKAVDEAADALLKAKEELEKMKSVIENAKKKEVAGAKPHITAAEGKLHNMIVDLDNVVKKVQAAQSEAKVVSQYHELVVQARDDFKRELDSITPEVLPGWKGMSVSDLADKLSTDDLNSLIAHAHRRIDQLNRELAEQKATEKQHITLALEKQKLEEKRAFDSAVAKALEHHRSEIQAEQDRKIEEVRDAMENEMRTQLRRQAAAHTDHLRDVLRVQEQELKSEFEQNLSEKLSEQELQFRRLSQEQVDNFTLDINTAYARLRGIEQAVQSHAVAEEEARKAHQLWLSVEALKYSMKTSSAETPTIPLGSAVEAIKANCSDNEFTQALTAAIPPESLTRGVYSEETLRARFYAVQKLARRVAMIDETRNSLYQYFLSYLQSLLLFPPQQLKPPPELCPEDINTFKLLSYASYCIEHGDLELAAKFVNQLKGESRRVAQDWLKEARMTLETKQIVEILTAYASAVGIGTTQVQPE
B2: HNRNPF (protein, UniProt P52597 1-415, looked up)
Heterogeneous nuclear …: MMLGPEGGEGFVVKLRGLPWSCSVEDVQNFLSDCTIHDGAAGVHFIYTREGRQSGEAFVELGSEDDVKMALKKDRESMGHRYIEVFKSHRTEMDWVLKHSGPNSADSANDGFVRLRGLPFGCTKEEIVQFFSGLEIVPNGITLPVDPEGKITGEAFVQFASQELAEKALGKHKERIGHRYIEVFKSSQEEVRSYSDPPLKFMSVQRPGPYDRPGTARRYIGIVKQAGLERMRPGAYSTGYGGYEEYSGLSDGYGFTTDLFGRDLSYCLSGMYDHRYGDSEFTVQSTTGHCVHMRGLPYKATENDIYNFFSPLNPVRVHIEIGPDGRVTGEADVEFATHEEAVAAMSKDRANMQHRYIELFLNSTTGASNGAYSSQVMQGMGVSAAQATYSGLESQSVSGCYGAGYSGQNSMGGYD
B3: NGDN (protein, UniProt Q8NEJ9 2-315, looked up)
Neuroguidin: AALGVLESDLPSAVTLLKNLQEQVMAVTAQVKSLTQKVQAGAYPTEKGLSFLEVKDQLLLMYLMDLTHLILDKASGGSLQGHDAVLRLVEIRTVLEKLRPLDQKLKYQIDKLIKTAVTGSLSENDPLRFKPHPSNMMSKLSSEDEEEDEAEDDQSEASGKKSVKGVSKKYVPPRLVPVHYDETEAEREKKRLERAKRRALSSSVIRELKEQYSDAPEEIRDARHPHVTRQSQEDQHRINYEESMMVRLSVSKREKGRRKRANVMSSQLHSLTHFSDISALTGGTVHLDEDQNPIKKRKKIPQKGRKKKGFRRRR
B4: ZNF280C (protein, UniProt Q8ND82 1-737, looked up)
Zinc finger protein 280C: MDDDKPFQPKNISKMAELFMECEEEELEPWQKKVEETQDEDDDELIFVGEISSSKPAISNILNRGHSSSSSKGIKSEPHSPGIPEIFRTASQRCRDPPSNPVAASPRFHLVSKSSQSSVTVENASKPDFTKNSQVGSDNSSILLFDSTQESLPPSQDIPAIFREGMKNTSYVLKHPSTSKVNSVTPKKPKTSEDVPQINPSTSLPLIGSPPVTSSQVMLSKGTNTSSPYDAGADYLRACPKCNVQFNLLDPLKYHMKHCCPDMITKFLGVIVKSERPCDEDKTDSETGKLIMLVNEFYYGRHEGVTEKEPKTYTTFKCFSCSKVLKNNIRFMNHMKHHLELEKQNNESWENHTTCQHCYRQYPTPFQLQCHIESTHTPHEFSTICKICELSFETEHILLQHMKDTHKPGEMPYVCQVCQFRSSTFSDVEAHFRAAHENTKNLLCPFCLKVSKMATPYMNHYMKHQKKGVHRCPKCRLQFLTSKEKAEHKAQHRTFIKPKELEGLPPGAKVTIRASLGPLQSKLPTAPFGCAPGTSFLQVTPPTSQNTTARNPRKSNASRSKTSKLHATTSTASKVNTSKPRGRIAKSKAKPSYKQKRQRNRKNKMSLALKNIRCRRGIHKCIECHSKIKDFASHFSIYIHCSFCKYNTNCNKAFVNHMMSSHSNHPGKRFCIFKKHSGTLRGITLVCLKCDFLADSSGLDRMAKHLSQRKTHTCQVIIENVSKSTSTSEPTTGCSLK
B5: RBMX (protein, UniProt P38159 1-391, looked up)
RNA-binding motif protein, X …: MVEADRPGKLFIGGLNTETNEKALEAVFGKYGRIVEVLLMKDRETNKSRGFAFVTFESPADAKDAARDMNGKSLDGKAIKVEQATKPSFESGRRGPPPPPRSRGPPRGLRGGRGGSGGTRGPPSRGGHMDDGGYSMNFNMSSSRGPLPVKRGPPPRSGGPPPKRSAPSGPVRSSSGMGGRAPVSRGRDSYGGPPRREPLPSRRDVYLSPRDDGYSTKDSYSSRDYPSSRDTRDYAPPPRDYTYRDYGHSSSRDDYPSRGYSDRDGYGRDRDYSDHPSGGSYRDSYESYGNSRSAPPTRGPPPSYGGSSRYDDYSSSRDGYGGSRDSYSSSRSDLYSSGRDRVGRQERGLPPSMERGYPPPRDSYSSSSRGAPRGGGRGGSRSDRGGGRSRY
B6: UTP14C (protein, UniProt Q5TAP6 1-766, looked up)
U3 small nucleolar …: MNVNQVAENLALSHQEELVDLPKNYPLSENEDEGDSDGERKHQKLLEAIISLDGKNRRKLAERSEASLKVSEFSVSSEGSGEKLGLADLLEPVKTSSSLATVKKQLNRVKSKKVVELPLNKEKIEQIHREVAFSKTSQVLSKWDPIILKNQQAEQLVFPLGKEQPAIAPIEHALSGWKARTPLEQEIFNLLHKNKQPVTDPLLTPMEKASLQAMSLEEAKMHRAELQRARALQSYYEAKARKEKKIKSKKYHKVVKKGKAKKALKEFEQLQKVNPTVALEEMEKIENARMMERMSLKHQNSGKWAKSKAIMAKYDLEARQAMQEQLAKNKELTQKLQVASESEEEEGGTEVEELLVPHVANEVQMNVDGPNPWMFRSCTSDTKEAATQEDPEQVPELAAHEVSASEAEERPVAEEEILLREFEERQSLRKRSELNQDAEPASSQETKDSSSQEVLSELRALSQKLKEKHQSRKQKASSEGTVPQVQREEPAPEEAEPLLLQRSERVQTLEELEELGKEDCFQNKELPRPVLEGQQSERTPNNRPDAPKEKKEKEQLINLQNFLTTQSPSVRSLAVPTIIEELEDEEERDQRQMIKEAFAGDDVIRDFLKEKREAVEASKPKDVDLTLPGWGEWGGVGLKPSAKKRRQFLIKAPEGPPRKDKNLPNVIISEKRNIHAAAHQVQVLPYPFTHHRQFERTIQTPIGSTWNTQRAFQKLTTPKVVTKPGHIIKPIKAEDVGYQSSSRSDLPVIQRNPKRITTRHNKEEKL
B7: XAB2 (protein, UniProt Q9HCS7 1-855, looked up)
Pre-mRNA-splicing factor SYF1: MVVMARLSRPERPDLVFEEEDLPYEEEIMRNQFSVKCWLRYIEFKQGAPKPRLNQLYERALKLLPCSYKLWYRYLKARRAQVKHRCVTDPAYEDVNNCHERAFVFMHKMPRLWLDYCQFLMDQGRVTHTRRTFDRALRALPITQHSRIWPLYLRFLRSHPLPETAVRGYRRFLKLSPESAEEYIEYLKSSDRLDEAAQRLATVVNDERFVSKAGKSNYQLWHELCDLISQNPDKVQSLNVDAIIRGGLTRFTDQLGKLWCSLADYYIRSGHFEKARDVYEEAIRTVMTVRDFTQVFDSYAQFEESMIAAKMETASELGREEEDDVDLELRLARFEQLISRRPLLLNSVLLRQNPHHVHEWHKRVALHQGRPREIINTYTEAVQTVDPFKATGKPHTLWVAFAKFYEDNGQLDDARVILEKATKVNFKQVDDLASVWCQCGELELRHENYDEALRLLRKATALPARRAEYFDGSEPVQNRVYKSLKVWSMLADLEESLGTFQSTKAVYDRILDLRIATPQIVINYAMFLEEHKYFEESFKAYERGISLFKWPNVSDIWSTYLTKFIARYGGRKLERARDLFEQALDGCPPKYAKTLYLLYAQLEEEWGLARHAMAVYERATRAVEPAQQYDMFNIYIKRAAEIYGVTHTRGIYQKAIEVLSDEHAREMCLRFADMECKLGEIDRARAIYSFCSQICDPRTTGAFWQTWKDFEVRHGNEDTIKEMLRIRRSVQATYNTQVNFMASQMLKVSGSATGTVSDLAPGQSGMDDMKLLEQRAEQLAAEAERDQPLRAQSKILFVRSDASREELAELAQQVNPEEIQLGEDEDEDEMDLEPNEVRLEQQSVPAAVFGSLKED
B8: WDR3 (protein, UniProt Q9UNX4 1-943, looked up)
WD repeat-containing protein 3: MGLTKQYLRYVASAVFGVIGSQKGNIVFVTLRGEKGRYVAVPACEHVFIWDLRKGEKILILQGLKQEVTCLCPSPDGLHLAVGYEDGSIRIFSLLSGEGNVTFNGHKAAITTLKYDQLGGRLASGSKDTDIIVWDVINESGLYRLKGHKDAITQALFLREKNLLVTSGKDTMVKWWDLDTQHCFKTMVGHRTEVWGLVLLSEEKRLITGASDSELRVWDIAYLQEIEDPEEPDPKKIKGSSPGIQDTLEAEDGAFETDEAPEDRILSCRKAGSIMREGRDRVVNLAVDKTGRILACHGTDSVLELFCILSKKEIQKKMDKKMKKARKKAKLHSSKGEEEDPEVNVEMSLQDEIQRVTNIKTSAKIKSFDLIHSPHGELKAVFLLQNNLVELYSLNPSLPTPQPVRTSRITIGGHRSDVRTLSFSSDNIAVLSAAADSIKIWNRSTLQCIRTMTCEYALCSFFVPGDRQVVIGTKTGKLQLYDLASGNLLETIDAHDGALWSMSLSPDQRGFVTGGADKSVKFWDFELVKDENSTQKRLSVKQTRTLQLDEDVLCVSYSPNQKLLAVSLLDCTVKIFYVDTLKFFLSLYGHKLPVICMDISHDGALIATGSADRNVKIWGLDFGDCHKSLFAHDDSVMYLQFVPKSHLFFTAGKDHKIKQWDADKFEHIQTLEGHHQEIWCLAVSPSGDYVVSSSHDKSLRLWERTREPLILEEEREMEREAEYEESVAKEDQPAVPGETQGDSYFTGKKTIETVKAAERIMEAIELYREETAKMKEHKAICKAAGKEVPLPSNPILMAYGSISPSAYVLEIFKGIKSSELEESLLVLPFSYVPDILKLFNEFIQLGSDVELICRCLFFLLRIHFGQITSNQMLVPVIEKLRETTISKVSQVRDVIGFNMAGLDYLKRECEAKSEVMFFADATSHLEEKKRKRKKREKLILTLT

system: BAF complex subunits and histone proteins; assay: Mass spectrometry proteomics of purified HA-SS18 WT and HA-SS18-SSX1 complexes (Tables 5A-5E); parameters: species or system human; details: HA-SS18SSX1_CHR_peptides: protein identified in the HA-SS18-SSX1 purification from solubilized chromatin (CHR), HEK-293T

Molecule	Total (total peptides)	Unique (unique peptides)
B1	6	6
B2	6	5
B3	6	5
B4	6	5
B5	6	5
B6	6	4
B7	5	5
B8	5	5

same assay, conditions: HA-SS18SSX1 purification, NE (soluble nuclear extract) fraction, HEK-293T; peptides per identified protein

Molecule	Total (total peptides)	Unique (unique peptides)
B2	5	5

same assay, conditions: HA-SS18WT_CHR_peptides: HA-SS18 WT purification from nuclease-treated solubilized chromatin (CHR), HEK-293T; label = protein identified

Molecule	Total (peptides)	Unique (peptides)
B1	4	4
B2	3	3
B5	4	4
B7	6	6

same assay, conditions: HA-SS18WT_CHR_peptides: protein identified in HA-SS18 WT BAF complex purification from nuclease-treated solubilized chromatin (CHR), HEK-293T

Molecule	Total (total peptides)	Unique (unique peptides)
B3	2	2
B6	2	2

same assay, conditions: HA-SS18WT_NE_peptides: HA-SS18 WT complexes purified from nuclear extract (NE), HEK-293T; label = protein identified (Gene Symbol)

Molecule	Total (peptides)	Unique (peptides)
B1	15	13
B2	4	4

same assay, conditions: HA-SS18WT_NE_peptides: proteins co-purified with HA-SS18 WT from nuclear extract (NE), HEK-293T

Molecule	Total (peptides)	Unique (peptides)
B1	1	1
